# Several values for one entry are separate records, joined by “and”; a condition that tells them apart may be missing. Equal entries are not always repeated. Inconclusive means that the source gave no clear call. Such entries were picked first, then a sample of the others. For some assays here: Potencies beside an inconclusive call are fits to weak or partial responses and may not hold up. Activity calls are given as the source filed them. Unless noted, calls follow the shape of the full dose curve.
# The chains behind the UniProt entries cited, without tags or fusion partners. Where a name states a change or a piece, a line headed by the entry shows the natural chain unless it says otherwise.
# UniProt P11229: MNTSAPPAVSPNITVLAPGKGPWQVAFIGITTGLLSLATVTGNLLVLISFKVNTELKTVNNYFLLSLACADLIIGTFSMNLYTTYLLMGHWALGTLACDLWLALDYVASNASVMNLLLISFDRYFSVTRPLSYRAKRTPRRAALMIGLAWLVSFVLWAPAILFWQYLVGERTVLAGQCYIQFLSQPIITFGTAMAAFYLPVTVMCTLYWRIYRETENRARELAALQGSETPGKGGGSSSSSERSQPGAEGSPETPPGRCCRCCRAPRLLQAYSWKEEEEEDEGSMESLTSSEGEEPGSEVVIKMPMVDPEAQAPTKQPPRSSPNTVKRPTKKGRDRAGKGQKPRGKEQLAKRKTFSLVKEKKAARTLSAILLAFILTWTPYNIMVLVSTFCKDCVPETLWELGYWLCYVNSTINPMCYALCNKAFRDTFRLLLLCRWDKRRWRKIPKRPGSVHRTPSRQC
# UniProt P14416, whole entry, looked up: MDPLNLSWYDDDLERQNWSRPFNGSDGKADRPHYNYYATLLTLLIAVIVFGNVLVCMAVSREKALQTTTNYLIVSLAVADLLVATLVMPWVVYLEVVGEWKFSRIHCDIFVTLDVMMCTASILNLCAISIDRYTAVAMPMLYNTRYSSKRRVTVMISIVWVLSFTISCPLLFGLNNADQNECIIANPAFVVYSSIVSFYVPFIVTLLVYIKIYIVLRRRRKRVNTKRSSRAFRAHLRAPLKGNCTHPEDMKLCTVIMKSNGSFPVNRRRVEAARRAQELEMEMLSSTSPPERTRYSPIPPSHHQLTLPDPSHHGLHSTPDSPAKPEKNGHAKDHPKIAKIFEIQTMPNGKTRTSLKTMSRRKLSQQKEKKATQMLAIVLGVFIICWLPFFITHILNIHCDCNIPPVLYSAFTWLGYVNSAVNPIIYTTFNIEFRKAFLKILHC
# UniProt P28223, whole entry, looked up: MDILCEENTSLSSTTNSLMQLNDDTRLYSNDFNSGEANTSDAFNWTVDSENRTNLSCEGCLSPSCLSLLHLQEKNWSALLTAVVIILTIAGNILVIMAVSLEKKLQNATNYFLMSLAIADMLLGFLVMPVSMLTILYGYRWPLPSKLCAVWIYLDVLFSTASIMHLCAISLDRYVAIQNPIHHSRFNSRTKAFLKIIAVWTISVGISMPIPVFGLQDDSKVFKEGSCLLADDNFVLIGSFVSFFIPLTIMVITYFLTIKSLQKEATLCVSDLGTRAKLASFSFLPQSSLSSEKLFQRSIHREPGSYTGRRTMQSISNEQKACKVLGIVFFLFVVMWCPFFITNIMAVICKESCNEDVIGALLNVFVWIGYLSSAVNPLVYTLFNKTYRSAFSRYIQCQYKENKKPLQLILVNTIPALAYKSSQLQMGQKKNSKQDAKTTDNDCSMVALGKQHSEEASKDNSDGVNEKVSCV
# Legend:
# [1] = p53 small molecule agonists, cell-based qHTS assay with human liver microsomes (AID 1963577); conditions: HCT-116 p53RE-bla with human liver microsomes, ratio, 16 h; activation: at 66 µM (top of the series) unless noted; also: potency is read from the fitted curve at half-maximal effect
# Outline: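 In this qHTS, p53 response-element beta-lactamase cells receive test compound together with a microsome/NADPH activating system (0.5 mg/mL final each) and are incubated 16 h at 37 C before LiveBLAzer fluorescence detection.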
# [2] = p53 small molecule agonists, cell-based qHTS assay with rat liver microsomes (AID 1963578); conditions: HCT-116 p53RE-bla, beta-lactamase ratio, 16 h; activation: at 66 µM (top of the series) unless noted; also: potency is read from the fitted curve at half-maximal effect; as to activation: % is scaled to controls: 0 for no effect and ±100 for the full control effect
# Outline: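 Agonist mode in p53RE-bla reporter cells, with compounds co-incubated 16 h at 37 C alongside 0.5 mg/mL rat liver microsomes and 0.5 mg/mL NADPH (final), followed by a 2 h LiveBLAzer detection step.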
# [3] = molecular target: Muscarinic acetylcholine receptor M1 (Homo sapiens) (UniProt P11229); assay: Cholinergic receptor muscarinic 1 (CHRM1) small molecule agonists, cell-based qHTS assay (AID 1963589); also: potency is read from the fitted curve at half-maximal effect; nearly all actives have a fitted effect of over 35% in size
# Outline: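 CHO cells stably expressing human CHRM1 were loaded with calcium dye for 1 h at 37 C, then compound was added in agonist mode. Intracellular calcium fluorescence was followed kinetically at 1 s intervals. Fifteen concentrations were tested in three independent runs.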
# [4] = cAMP Responsive Elements (CRE) small molecule agonists, cell-based qHTS assay (AID 1963590); conditions: CRE-bla HEK293T, beta-lactamase FRET ratio, 3 h; activation: at 92.4 µM (top of the series) unless noted; also: potency is read from the fitted curve at half-maximal effect; as to activation: % is scaled to controls: 0 for no effect and ±100 for the full control effect
# Outline: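 CRE-bla HEK 293T cells, 2,000/well in DMEM with 10% dialyzed FBS and 25 mM HEPES, pre-incubated 18 h at 37 C, then exposed to compound 3 h at 37 C. Beta-lactamase reporter read with LiveBLAzer B/G FRET substrate after 2 h at room temperature.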
# [5] = cAMP Responsive Elements (CRE) small molecule antagonists, cell-based qHTS assay (AID 1963591; active = well fitted inhibition curve with a large enough effect in the signal ratio in the repeat runs, not every such curve was filed as active; inconclusive = weak or mixed curves, or effect the other way; the % refers to the signal ratio; also: potency is read from the fitted curve at half-maximal effect; as to activity change, negative = inhibition: % is scaled to controls: 0 for no effect and ±100 for the full control effect); conditions: CRE-bla HEK293T, beta-lactamase FRET ratio; activity change, negative = inhibition: at 92.4 µM (top of the series) unless noted
# Outline: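 CRE-bla HEK293T cells plated 18 h, then given compound plus NKH477 at 0.25 uM final for 3 h at 37C. Beta-lactamase reporter read with LiveBLAzer B/G FRET substrate after 2 h at room temperature.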
# [6] = molecular target: Beta-2 adrenergic receptor (Homo sapiens) (UniProt P07550); assay: Adrenergic beta2 receptor (ADRB2) small molecule agonists, cell-based qHTS assay (AID 1963593); conditions: CHO-ADRB2 cells, cAMP HTRF, 30 min; activation: at 92.4 µM (top of the series) unless noted; also: potency is read from the fitted curve at half-maximal effect;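 as to activation: CHO cells stably overexpressing human ADRB2; % is scaled to controls: 0 for no effect and ±100 for the full control effect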
# Outline: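 CHO cells stably over-expressing ADRB2 were plated overnight at 37C, then dosed with compounds plus a stimulation mix containing 100uM IBMX and 25uM Ro-20-1724 for 0.5hr at room temperature. cAMP was measured by HTRF competition, 1hr.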
# [7] = molecular target: D(2) dopamine receptor (Homo sapiens) (UniProt P14416); assay: Dopamine D2 receptor (DRD2) small molecule agonists, cell-based qHTS assay (AID 1963594); conditions: HEK293-DRD2 cAMP HTRF, agonist mode, 30 min; activation: at 92.4 µM (top of the series) unless noted; also: % is scaled to controls: 0 for no effect and ±100 for the full control effect; nearly all actives have a fitted effect of over 35% in size
# Outline: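 HEK293 cells stably expressing DRD2 were cultured 24 h at 37 C, then given Ro20-1724 (0.1 mM final) and compounds for 10 min at room temperature. NKH477 (200nM) was then added for 30 min. cAMP was read by HTRF.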
# [8] = p53 small molecule agonists, cell-based qHTS assay with human liver microsomes: qHTS cell viability counter screen (AID 1963579); also: nearly all actives have a fitted effect of over 45% in size; also: potency is read from the fitted curve at half-maximal effect
# Outline: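 Metabolically activated exposure: compounds, human liver microsomes and NADPH (0.5 mg/mL final apiece) were added to p53RE-bla cells seeded 5 h earlier, left 16 h at 37 C, and then assessed for viability by CellTiter-Glo luminescence.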
# [9] = p53 small molecule agonists, cell-based qHTS assay (AID 1963582; active = well fitted activation curve with a large enough effect in the signal ratio in the repeat runs, not every such curve was filed as active; inconclusive = weak or mixed curves; the % refers to the signal ratio; also: potency is read from the fitted curve at half-maximal effect); conditions: HCT-116 p53RE-bla reporter, beta-lactamase FRET ratio, 16 h; activation: at 66 µM (top of the series) unless noted
# Outline: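 p53RE-bla reporter cells, compounds added in DMSO after 5 h plating, incubated 16 h at 37 C. Beta-lactamase read via 2 h room-temperature LiveBLAzer B/G FRET substrate, fluorescence intensity.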
# [10] = molecular target: D(2) dopamine receptor (Homo sapiens) (UniProt P14416); assay: Dopamine D2 receptor (DRD2) small molecule antagonists, cell-based qHTS assay (AID 1963595; active = well fitted inhibition curve with a large enough effect in the signal ratio in the repeat runs, with a control signal flat; inconclusive = weak or mixed curves, or effect the other way; the % refers to the signal ratio; also: potency is read from the fitted curve at half-maximal effect); conditions: HEK293-DRD2 cAMP HTRF antagonist mode; activity change, negative = inhibition: at 92.4 µM (top of the series) unless noted
# Outline: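 Human DRD2 antagonist qHTS measuring cAMP by HTRF. The cells are exposed to compound for 10 min, then to NKH477 (200 nM) and quinpirole (12 nM) for 30 min at RT, with Ro20-1724 (0.1 mM) present throughout.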
# [11] = molecular target: 5-hydroxytryptamine receptor 2A (Homo sapiens) (UniProt P28223); assay: 5-hydroxytryptamine receptor 2A (HTR2A) small molecule antagonists, cell-based qHTS assay (AID 1963586); also: nearly all actives have a fitted effect of over 45% in size; also: potency is read from the fitted curve at half-maximal effect
# Outline: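 Antagonist-mode intracellular calcium assay: DOI (4 nM) added after 5 min compound pre-incubation at room temperature to dye-loaded HTR2A-CHO cells. Fluorescence followed for 3 min, sampled every second.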
# [12] = p53 small molecule agonists, cell-based qHTS assay: qHTS cell viability counter screen (AID 1963581); also: nearly all actives have a fitted effect of over 45% in size; also: potency is read from the fitted curve at half-maximal effect
# Outline: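 p53RE-bla HCT-116 cells, compounds added 5 h after plating and incubated 16 h at 37 C. Cytotoxicity measured in the same wells as intracellular ATP by CellTiter-Glo luminescence after 30 min at room temperature.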
# [13] = molecular target: Beta-2 adrenergic receptor (Homo sapiens) (UniProt P07550); assay: Adrenergic beta2 receptor (ADRB2) small molecule antagonists, cell-based qHTS assay (AID 1963592); conditions: CHO-ADRB2 cells, isoproterenol-stimulated cAMP HTRF ratio, 0.5 h; activity change, negative = inhibition: at 92.4 µM (top of the series) unless noted; also: potency is read from the fitted curve at half-maximal effect; nearly all actives have a fitted effect of over 50% in size
# Outline: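 Cells (CHO, stable ADRB2 overexpression) incubated 18-20hr at 37C; compounds added from DMSO; agonist mix (1nM isoproterenol, 100uM IBMX, 25uM Ro-20-1724) added; 0.5hr RT; d2-cAMP and anti-cAMP-cryptate added; 1hr RT; 665/615 nm read.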
smiles,measurement,setting,value
c1ccc(Nc2ccccc2)cc1,Potency,[1],inconclusive: 45.7 µM [activator]
same,Potency,[2],"inconclusive: 40.8 µM [fluorescent, partial curve]"
same,Potency,[3],"inconclusive: 48.9 µM [rising, partial curve, poor fit]"
same,Potency,[4],"inconclusive: 68.5 µM [rising, single point] and inconclusive: 68.6 µM [rising, single point]"
same,Potency,[5],"inconclusive: 54.4 µM [inhibitor, partial curve, poor fit] and inconclusive: 54.5 µM [partial curve]"
same,Potency,[6],"inconclusive: 24.3 µM [inhibitor, partial curve, poor fit]"
same,activation,[6],inconclusive: -33.5%
same,activation,[7],inconclusive: 0.338%
Cc1nc2sccn2c(=O)c1CCN1CCC(=C(c2ccc(F)cc2)c2ccc(F)cc2)CC1,Potency,[1],"inconclusive: 19.9 µM [rising, partial curve]"
same,Potency,[8],"inconclusive: 0.0112 µM [rising, full curve, poor fit]"
same,Potency,[9],"inconclusive: 2.51 µM [fluorescent, full curve, poor fit]"
same,Potency,[4],"inconclusive: 26.6 µM [rising, partial curve]"
same,Potency,[5],inconclusive: 21.1 µM [fluorescent]
same,Potency,[6],"inconclusive: 23.7 µM [inhibitor, partial curve, poor fit]"
same,Potency,[10],active: 26.6 µM
COCCOc1cc2cc(C(=O)NC3CCN(C(C)C)CC3)n(CC(=O)Nc3ccc(Cl)cn3)c2cn1,Potency,[1],"inconclusive: 45.2 µM [rising, single point]"
same,Potency,[2],inactive
same,Potency,[11],inactive
same,"activity change, negative = inhibition",[5],inconclusive: 22.3%
same,Potency,[6],inactive
same,activation,[7],inconclusive: 2.64%
C=C1c2cccc(O)c2C(O)=C2C(=O)[C@]3(O)C(O)=C(C(N)=O)C(=O)[C@@H](N(C)C)[C@@H]3[C@@H](O)[C@H]12,Potency,[1],"inconclusive: 8.9 µM [rising, partial curve, poor fit]"
same,Potency,[2],"inconclusive: 15.8 µM [rising, partial curve]"
same,Potency,[4],inactive
same,Potency,[5],inactive
same,activation,[6],inconclusive: -68.3% [at 42.5 µM]
COc1ccc2cc(S(=O)(=O)N[C@H](CC(=O)N[C@H](Cc3ccc(CN4[C@H](C)CCC[C@@H]4C)cc3)C(=O)N(C)C(C)C)c3ccc4c(c3)OCO4)ccc2c1,Potency,[1],"inconclusive: 6.12 µM [rising, partial curve]"
same,Potency,[8],active: 43.3 µM
same,Potency,[12],"inconclusive: 48.6 µM [cytotoxic, single point]"
same,Potency,[9],"inconclusive: 48.6 µM [rising, single point]"
same,Potency,[4],"inconclusive: 64.9 µM [fluorescent, single point]"
same,Potency,[5],inconclusive: 64.9 µM
same,Potency,[6],inactive
same,activation,[7],inconclusive: -31.6%
same,Potency,[10],inconclusive: 57.9 µM [inhibitor]
CCC(=O)OCCC(C)CCC=C(C)C (stereo not given),Potency,[1],"inconclusive: 51.3 µM [activator, single point]"
same,Potency,[8],inactive
same,Potency,[12],inactive
same,Potency,[11],inactive
same,activation,[6],inconclusive: 5.06%
CC(=O)OC(C)OC(=O)C(C)c1ccc(-c2ccccc2)c(F)c1 (stereo not given),Potency,[1],"inconclusive: 22.3 µM [rising, single point]"
same,Potency,[8],"inconclusive: 22.3 µM [cytotoxic, single point]"
same,Potency,[9],"inconclusive: 17.8 µM [rising, partial curve, poor fit]"
same,Potency,[4],"inconclusive: 18.8 µM [rising, partial curve]"
same,Potency,[5],"inconclusive: 23.7 µM [fluorescent, partial curve, poor fit]"
same,Potency,[6],inactive
CCOC(=O)C(C)C(C)=O (stereo not given),Potency,[1],inactive
same,Potency,[8],inactive
CCc1c(C)[nH]c2c1C(=O)C(CN1CCOCC1)CC2 (stereo not given),Potency,[1],inactive
same,Potency,[2],"inconclusive: 12.6 µM [activator, single point]"
same,Potency,[11],"inconclusive: 4.1 µM [inhibitor, full curve]"
same,Potency,[13],"inconclusive: 7.5 µM [inhibitor, full curve, poor fit]"
same,Potency,[6],"inconclusive: 3.35 µM [inhibitor, full curve]"
same,Potency,[10],active: 0.75 µM
CCCCNC1CC(C)(C)NC(C)(C)C1,Potency,[1],inactive
same,activation,[2],inconclusive: -4.29%
same,Potency,[4],inactive
CCc1cccc2c(CCO)c[nH]c12,Potency,[1],"inconclusive: 12.6 µM [falling, partial curve, poor fit]"
same,Potency,[8],"inconclusive: 22.3 µM [rising, single point]"
COc1cccc(N(C)C(=S)Oc2ccc3c(c2)CCCC3)n1,Potency,[1],inconclusive: 22.3 µM [fluorescent]
same,Potency,[8],"inconclusive: 22.3 µM [cytotoxic, single point]"
same,Potency,[9],"inconclusive: 7.93 µM [rising, full curve]"
same,Potency,[11],active: 5.79 µM
same,Potency,[5],inactive
same,Potency,[6],"inconclusive: 1.19 µM [inhibitor, single point]"

# Four entries from above, with bars between the fields:
smiles | measurement | setting | value
C=C1c2cccc(O)c2C(O)=C2C(=O)[C@]3(O)C(O)=C(C(N)=O)C(=O)[C@@H](N(C)C)[C@@H]3[C@@H](O)[C@H]12 | Potency | [4] | inactive
COc1ccc2cc(S(=O)(=O)N[C@H](CC(=O)N[C@H](Cc3ccc(CN4[C@H](C)CCC[C@@H]4C)cc3)C(=O)N(C)C(C)C)c3ccc4c(c3)OCO4)ccc2c1 | Potency | [1] | inconclusive: 6.12 µM [rising, partial curve]
CC(=O)OC(C)OC(=O)C(C)c1ccc(-c2ccccc2)c(F)c1 (stereo not given) | Potency | [8] | inconclusive: 22.3 µM [cytotoxic, single point]
same | Potency | [9] | inconclusive: 17.8 µM [rising, partial curve, poor fit]

# Reference: PubChem BioAssay (Tox21)
